The text below walks through data of paper PMC8237258 (Journal of Medicinal Chemistry, 2021).

Bridges are numbered along the chain shown (N, C = ends).

Data set [1] can be described thus: Fmoc solid-phase peptide synthesis; 2-chlorotrityl hydrazine resin; HCTU/DIEA. The settings on record: whole synthesis, overall, scale of the general procedure 0.1 mmol.
Data set [2] in a line: general procedure: Fmoc solid-phase peptide synthesis; Rink amide resin (0.74 mmol/g) or freshly prepared 2-chlorotrityl hydrazine resin; HCTU/DIEA. The settings on record: whole synthesis, scale of the general procedure 0.1 mmol.

Regarding “cyclo(ACTGCYCCEYCCNP) (disulfide 2-8, 5-11, 7-12; SMILES C[C@@H]1NC(=O)[C@@H]2CCCN2C(=O)[C@H](CC(N)=O)NC(=O)[C@@H]2CSSC[C@@H]3NC(=O)[C@H](Cc4ccc(O)cc4)NC(=O)[C@@H]4CSSC[C@H](NC(=O)[C@H](Cc5ccc(O)cc5)NC(=O)[C@H](CCC(=O)O)NC(=O)[C@H](CSSC[C@H](NC1=O)C(=O)N[C@@H]([C@@H](C)O)C(=O)NCC(=O)N4)NC3=O)C(=O)N2)”, in data set [1], the isolated yield stood at 4%. For the same substance, the “final purity (method not given)” value in data set [2] is given as >95% purity.
